The assay can be described thus: qHTS Assay for Modulators of Lamin A Splicing. Particulars: HeLa LMNA splicing GFP/RFP minigene ratio, 48 h. Put shortly: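 S3 HeLa cells stably expressing lamin A-EGFP splicing minigene plus DsRed2, 600 cells/well, 48 h compound exposure at 37C. Laser-scanning cytometry; analysed as GFP (500-530 nm)/RFP (575-640 nm) total intensity ratio; 0.5% DMSO vehicle.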
(In general: In qHTS, concentration-response curves come from the screen itself.)

The mark [1] stands for this setting: measured here: RFP viability control channel.
Setting [2] is: measured here: GFP splicing reporter channel.

The list shows a part of the results. Shown are side measurements of this screen, not its main read-out; they come without a call. Compounds called inactive in the main read-out are mostly missing here. Potencies come from curve fits of mixed quality, noted in brackets.

As a reminder, the AC50 is the concentration at which the activity in the assay is half-maximal. Regarding `CC(C)Cc1cc(C(=O)N2CCN(c3ccc(F)cc3)CC2)no1`, the AC50 under setting [1] was 11.2 µM [rising, partial curve]. Consider `O=C(COc1ccc(Cl)cc1)N1CCN(S(=O)(=O)c2ccc(Cl)cc2)CC1`, for which the AC50 was 11.2 µM [rising, single point] under setting [2] and 14.1 µM [rising, single point] under setting [1]. Turning to `COc1ccccc1NS(=O)(=O)c1cccc(NC(=O)Nc2ccc(Cl)cc2)c1`, the AC50 was 17.8 µM [falling, partial curve] under setting [2] and 31.6 µM [falling, partial curve] under setting [1].

For `O=c1c2c3c(sc2nc2n1CCC2)CCCCC3`, the AC50 reads like this: under setting [2], 2 µM [rising, partial curve, poor fit]; under setting [1], 1.78 µM [rising, full curve].

Take `CC(=O)SC1CC2=CC(=O)CC[C@]2(C)C2CC[C@@]3(C)[C@@H](CC[C@@]34CCC(=O)O4)C12` (stereo partly drawn): the AC50 is, setting by setting: under setting [2], 0.00447 µM [falling, full curve, poor fit]; under setting [1], 8.91 µM [falling, partial curve]. Consider `CC(=O)c1cc(NC(=O)c2ccc([N+](=O)[O-])cc2)c(=O)oc1C`, for which the AC50 under setting [2] was 15.8 µM [falling, partial curve, poor fit] and the AC50 under setting [1] was 31.6 µM [rising, single point]. Turning to `O=C(Nc1ccc(F)cc1)Nc1ccc(Cl)cn1`, the AC50 under setting [2] is 0.891 µM [falling, partial curve, poor fit] and the AC50 under setting [1] was 35.5 µM [falling, single point]. As for `COC(=O)Cc1ccc(NC(=S)NCCCN2CCOCC2)cc1`, under setting [1], the AC50 is 0.0794 µM [falling, full curve, poor fit].

Regarding `Cc1ccc(-n2c(SCC(=O)NCc3ccco3)nnc2-c2cccnc2)c(C)c1`, the AC50 is 11.2 µM [rising, partial curve] under setting [2] and 31.6 µM [rising, single point] under setting [1].

Consider `CC(=O)c1sc(-c2ccccc2)cc1N`, for which the AC50 was 11.2 µM [rising, partial curve] under setting [2] and 5.01 µM [rising, full curve] under setting [1].

For `O=C(N1CCCCC1)N1CCN(c2ccc(Cl)cc2)CC1`, the AC50 under setting [1] was 12.6 µM [rising, single point].

Turning to `COCCNC(=O)CSc1nc(-c2ccccc2C)nc2c1c(=O)n(C)c(=O)n2C`, under setting [1], the AC50 was 35.5 µM [rising, single point]. On to `COc1ccc(CCC(=O)NCCc2csc(-c3ccc(Cl)cc3)n2)cc1`, for which the AC50 under setting [2] is 7.94 µM [falling, full curve, poor fit]. With `CCN(CC(=O)NCc1ccc(F)cc1)C(=O)/C=C/c1ccco1`, the AC50 is 0.631 µM [falling, full curve, poor fit] under setting [2] and 0.447 µM [falling, partial curve, poor fit] under setting [1]. With `Cc1ccc(NC(=O)COC(=O)c2ccc([N+](=O)[O-])s2)c(C)c1`, under setting [2], the AC50 was 0.0316 µM [falling, full curve, poor fit].

Take `CCOC(=O)c1c(N)sc(C(=O)N2CCCCCC2)c1C`: under setting [1], the AC50 is 0.141 µM [rising, single point]. For the compound `O=C(CC1SC(=Nc2ccccc2)N(Cc2ccccn2)C1=O)Nc1cccc(Cl)c1` (stereo not drawn), the AC50 under setting [2] is 17.8 µM [falling, single point].

In the case of `N#Cc1cc(-c2ccccc2)oc1NC(=O)c1ccccc1`, the AC50 under setting [2] is 12.6 µM [rising, partial curve] and the AC50 under setting [1] is 35.5 µM [rising, single point]. Regarding `CCCCn1nnnc1NCc1cc(OC)c(OC)cc1OC`, the AC50 under setting [1] is 35.5 µM [rising, single point]. Consider `CC1=C(C)CS(=O)N(S(=O)(=O)c2ccc(Cl)cc2)C1` (stereo not drawn), for which the AC50 by setting is: under setting [2], 35.5 µM [falling, single point]; under setting [1], 35.5 µM [falling, single point]. Turning to `O=C(NCc1ccco1)/C(=C/c1ccc(C(F)(F)F)cc1)c1nc2ccccc2[nH]1`, the AC50 is 6.31 µM [rising, full curve] under setting [2] and 4.47 µM [rising, partial curve] under setting [1].

As to `COc1ccc(Nc2ccc(N3C(=O)CC(C)C3=O)cc2[N+](=O)[O-])cc1OC` (stereo not drawn), the AC50 under setting [2] was 0.0398 µM [rising, full curve].

For the compound `N=C(N)Cc1ccccc1Sc1ccccc1`, the AC50 is 28.2 µM [rising, single point] under setting [2] and 31.6 µM [rising, single point] under setting [1]. In the case of `O=C1O/C(=C\C(=O)N2CCOCC2)c2ccccc21`, the AC50 by setting is: under setting [2], 6.31 µM [falling, single point]; under setting [1], 5.62 µM [falling, single point]. `CCc1ccc(C2=NN(CCC(=O)NCCc3ccc(Cl)cc3)C(=O)CC2)cc1`: the AC50 is, setting by setting: under setting [2], 11.2 µM [rising, partial curve, poor fit]; under setting [1], 12.6 µM [rising, partial curve].

Consider `CC(=O)N1CCCc2cc(S(=O)(=O)N3CCCC(C(=O)N4CCN(c5cc(C)ccc5C)CC4)C3)ccc21` (stereo not drawn), for which, under setting [1], the AC50 is 0.02 µM [rising, full curve, poor fit]. Consider `O=C(O)C1CCCCC1C(=O)Nc1cc(C(F)(F)F)ccc1Cl` (stereo not drawn), for which the AC50 under setting [2] was 20 µM [falling, partial curve, poor fit] and the AC50 under setting [1] is 0.0224 µM [falling, full curve, poor fit]. On to `Cc1nc(NCc2cccnc2)c2c3c(sc2n1)CCCC3`, for which the AC50 under setting [2] was 0.00355 µM [rising, full curve, poor fit]. In the case of `Oc1c(CN2CCN(c3ccccn3)CC2)cc(Cl)c2cccnc12`, the AC50 under setting [1] is 12.6 µM [rising, partial curve]. For the compound `N#CCCN/N=C(\Cc1nc2ccccc2[nH]1)c1ccccc1`, the AC50 under setting [1] was 15.8 µM [rising, single point]. For `O=C(Nc1cccc(S(=O)(=O)Nc2ccc(Cl)cc2)c1)c1ccc(Cl)nc1`, the AC50 under setting [1] was 0.562 µM [rising, full curve, poor fit]. Turning to `CCOC(=O)Cn1nnnc1C(C(C)C)N(Cc1cc2c(C)cc(C)cc2[nH]c1=O)C1CCCC1` (stereo not drawn), the AC50 under setting [1] is 31.6 µM [rising, single point]. In the case of `C=CCN1CCc2c(cc(O)c(O)c2Br)[C@@H](c2ccccc2)C1`, the AC50 under setting [2] is 22.4 µM [falling, single point].

For the compound `CCOC(=O)c1cnc2ccc(OCC)cc2c1N(C)Cc1ccccc1`, the AC50 was 2 µM [rising, single point] under setting [2] and 12.6 µM [rising, single point] under setting [1]. On to `O=C(COc1cccc2ccccc12)N1CCN(c2ccccc2)CC1`, for which the AC50 was 11.2 µM [rising, partial curve] under setting [2] and 17.8 µM [rising, single point] under setting [1]. As to `O=C(COC(=O)c1ccc(Cl)nc1)NCc1cccs1`, the half-maximal activity concentration (AC50) under setting [1] is 1.41 µM [falling, partial curve, poor fit]. With `O=C(Nc1ccc(Cl)cc1)Nc1ccc(N2CCCC2)c(S(=O)(=O)Nc2ccccc2Cl)c1`, under setting [1], the AC50 is 5.62 µM [rising, single point]. `Cc1ccc(/C=C2/SC(=S)N(CCC(=O)N3CCN(C)CC3)C2=O)cc1`: the AC50 under setting [1] is 28.2 µM [rising, single point]. Take `COc1ccccc1N1CCN(C(=O)COc2ccc(Cl)cc2Br)CC1`: the AC50 under setting [2] was 20 µM [rising, partial curve, poor fit] and the AC50 under setting [1] is 25.1 µM [rising, single point]. Consider `CCOC(=O)CC(=O)CSc1nc(-c2cccnc2)ccc1C#N`, for which the AC50 is, setting by setting: under setting [2], 0.0562 µM [falling, full curve, poor fit]; under setting [1], 0.0501 µM [falling, full curve]. With `O=C(NCCO)C1CCN(C(=O)c2ccc(-c3ccccc3)cc2)CC1`, the AC50 under setting [1] was 39.8 µM [falling, partial curve, poor fit]. Take `CC(C)(C)OC(=O)COc1cc(O)c2c(=O)cc(-c3ccccc3)oc2c1`: under setting [1], the AC50 was 10 µM [rising, partial curve]. As for `CCOc1cccc2sc(N(CCN(CC)CC)C(=O)c3ccco3)nc12`, the AC50 under setting [2] is 10 µM [falling, partial curve, poor fit].

For `Cc1ccc2nc(-c3ccc(NC(=S)NC(=O)C(C)C)cc3)sc2c1`, the AC50 under setting [2] was 0.398 µM [falling, full curve, poor fit]. For `CC(C)NC(=O)CSc1nnc(C2CC2)n1-c1ccccc1`, the AC50 is 14.1 µM [falling, single point] under setting [2] and 14.1 µM [falling, partial curve] under setting [1]. Regarding `Cc1ccc(-n2[nH]c(C)c(/C=N/N3C(=O)c4cccc5cccc(c45)C3=O)c2=O)cc1`, the AC50 under setting [2] was 12.6 µM [falling, partial curve, poor fit].

Regarding `COc1ccc(NC(=O)CCN2CCN(S(=O)(=O)c3cc(Cl)ccc3Cl)CC2)cc1`, the AC50 under setting [2] was 35.5 µM [rising, single point] and the AC50 under setting [1] is 35.5 µM [rising, single point].

Regarding `CCC(C)NC(=O)c1nc2c(nnn2Cc2ccccc2Cl)c(=O)[nH]1` (stereo not drawn), the AC50 by setting is: under setting [2], 2.24 µM [rising, partial curve]; under setting [1], 1.41 µM [rising, partial curve]. With `O=C(NC(=S)Nc1cnc2ccccc2c1)c1ccccc1`, the AC50 under setting [1] is 0.0316 µM [falling, full curve, poor fit].

Turning to `Cc1sc2nc(CSc3ccccc3)nc(N3CCOCC3)c2c1C`, the AC50 under setting [2] is 20 µM [rising, single point] and the AC50 under setting [1] was 0.282 µM [rising, full curve, poor fit]. As to `CN(CC(=O)Nc1ccc(Cl)cc1)CC(=O)Nc1cc(Cl)ccc1C#N`, the AC50 reads like this: under setting [2], 35.5 µM [rising, single point]; under setting [1], 31.6 µM [rising, single point]. With `CCOC(=O)c1ccc(NC(=O)CN2C(=O)NC3(CCC(C)CC3)C2=O)cc1` (stereo not drawn), the AC50 under setting [2] is 0.355 µM [falling, full curve, poor fit]. Turning to `Cc1cccc(-n2c(SCC(=O)c3ccccc3)nnc2-c2ccc(Br)cc2)c1`, the AC50 under setting [1] is 10 µM [falling, partial curve].

(Values after PubChem BioAssay AID1487 (National Center for Advancing Translational Sciences (NCATS), 2009).)
